# Assay results from the supplement of paper PMC10849652.
# The chains behind the UniProt entries cited, without tags or fusion partners. Where a name states a change or a piece, a line headed by the entry shows the natural chain unless it says otherwise.
# UniProt O95816: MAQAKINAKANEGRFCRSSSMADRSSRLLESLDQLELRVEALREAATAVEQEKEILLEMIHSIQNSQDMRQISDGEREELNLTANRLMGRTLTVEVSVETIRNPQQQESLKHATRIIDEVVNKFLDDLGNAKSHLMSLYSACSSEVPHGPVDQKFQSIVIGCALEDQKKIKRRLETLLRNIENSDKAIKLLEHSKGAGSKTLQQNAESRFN
# UniProt Q7KYR7: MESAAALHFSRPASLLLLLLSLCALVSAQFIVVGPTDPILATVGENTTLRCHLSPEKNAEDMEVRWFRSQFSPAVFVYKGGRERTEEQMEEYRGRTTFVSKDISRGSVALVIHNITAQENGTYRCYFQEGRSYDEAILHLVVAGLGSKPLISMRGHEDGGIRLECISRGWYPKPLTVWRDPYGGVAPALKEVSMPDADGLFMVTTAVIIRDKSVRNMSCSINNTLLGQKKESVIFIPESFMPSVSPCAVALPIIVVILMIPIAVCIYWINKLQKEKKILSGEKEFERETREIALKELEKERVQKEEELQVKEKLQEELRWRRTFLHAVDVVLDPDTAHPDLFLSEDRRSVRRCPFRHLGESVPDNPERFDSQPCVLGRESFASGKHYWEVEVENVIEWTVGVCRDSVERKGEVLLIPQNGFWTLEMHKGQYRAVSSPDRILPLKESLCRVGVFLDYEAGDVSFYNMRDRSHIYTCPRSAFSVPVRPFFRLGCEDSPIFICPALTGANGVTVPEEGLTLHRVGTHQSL
# UniProt Q9UHQ4: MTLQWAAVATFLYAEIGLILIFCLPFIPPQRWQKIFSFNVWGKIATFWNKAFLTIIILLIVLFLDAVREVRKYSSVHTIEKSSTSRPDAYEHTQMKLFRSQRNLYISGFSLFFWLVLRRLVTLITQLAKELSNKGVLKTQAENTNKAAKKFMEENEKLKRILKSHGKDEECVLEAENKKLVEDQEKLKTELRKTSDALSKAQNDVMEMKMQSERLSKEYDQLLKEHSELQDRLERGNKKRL
# UniProt O60512: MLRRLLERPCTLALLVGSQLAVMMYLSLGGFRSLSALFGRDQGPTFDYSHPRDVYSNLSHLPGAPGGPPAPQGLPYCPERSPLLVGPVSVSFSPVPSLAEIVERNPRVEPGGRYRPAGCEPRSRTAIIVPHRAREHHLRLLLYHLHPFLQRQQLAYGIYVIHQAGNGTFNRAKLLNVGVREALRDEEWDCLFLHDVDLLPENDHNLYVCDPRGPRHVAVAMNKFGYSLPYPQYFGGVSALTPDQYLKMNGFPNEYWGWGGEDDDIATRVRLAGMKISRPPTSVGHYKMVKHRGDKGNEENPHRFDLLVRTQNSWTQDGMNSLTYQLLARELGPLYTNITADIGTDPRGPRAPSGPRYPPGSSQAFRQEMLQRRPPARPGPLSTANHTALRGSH
# UniProt Q9NXR7, whole entry, looked up: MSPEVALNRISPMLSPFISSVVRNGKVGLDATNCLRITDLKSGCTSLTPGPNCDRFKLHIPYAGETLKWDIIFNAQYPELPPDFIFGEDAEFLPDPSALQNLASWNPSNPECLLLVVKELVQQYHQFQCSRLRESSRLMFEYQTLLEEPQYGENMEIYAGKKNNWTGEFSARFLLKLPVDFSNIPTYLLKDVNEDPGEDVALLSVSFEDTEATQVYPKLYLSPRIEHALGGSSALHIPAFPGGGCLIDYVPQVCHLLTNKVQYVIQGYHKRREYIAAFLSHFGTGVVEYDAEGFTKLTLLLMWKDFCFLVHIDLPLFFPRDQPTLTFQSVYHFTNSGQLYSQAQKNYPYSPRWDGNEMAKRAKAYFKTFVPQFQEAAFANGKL
# UniProt Q4VC05, whole entry, looked up: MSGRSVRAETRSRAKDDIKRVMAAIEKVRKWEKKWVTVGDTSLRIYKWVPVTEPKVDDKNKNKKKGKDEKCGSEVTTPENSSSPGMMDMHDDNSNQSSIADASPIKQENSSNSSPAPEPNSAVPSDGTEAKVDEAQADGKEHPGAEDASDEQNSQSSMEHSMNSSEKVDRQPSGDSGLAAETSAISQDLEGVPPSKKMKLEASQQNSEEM
# UniProt Q13490, whole entry, looked up: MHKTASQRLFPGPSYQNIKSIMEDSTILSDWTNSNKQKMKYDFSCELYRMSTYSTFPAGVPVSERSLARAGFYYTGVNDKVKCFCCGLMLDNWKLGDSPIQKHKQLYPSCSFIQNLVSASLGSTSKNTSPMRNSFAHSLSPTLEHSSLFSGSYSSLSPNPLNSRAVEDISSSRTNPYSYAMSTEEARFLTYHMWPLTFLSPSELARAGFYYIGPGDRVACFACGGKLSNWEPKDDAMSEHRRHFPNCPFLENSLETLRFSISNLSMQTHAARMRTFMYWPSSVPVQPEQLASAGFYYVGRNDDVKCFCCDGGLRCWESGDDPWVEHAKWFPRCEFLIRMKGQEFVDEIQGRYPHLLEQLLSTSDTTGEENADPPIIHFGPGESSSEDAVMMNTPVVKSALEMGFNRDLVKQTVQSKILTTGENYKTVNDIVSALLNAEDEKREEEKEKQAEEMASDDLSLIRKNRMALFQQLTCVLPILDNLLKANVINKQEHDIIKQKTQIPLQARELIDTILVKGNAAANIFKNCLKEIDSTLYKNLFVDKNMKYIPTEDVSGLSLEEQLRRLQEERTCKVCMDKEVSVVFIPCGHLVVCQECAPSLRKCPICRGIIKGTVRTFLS
# UniProt P55957: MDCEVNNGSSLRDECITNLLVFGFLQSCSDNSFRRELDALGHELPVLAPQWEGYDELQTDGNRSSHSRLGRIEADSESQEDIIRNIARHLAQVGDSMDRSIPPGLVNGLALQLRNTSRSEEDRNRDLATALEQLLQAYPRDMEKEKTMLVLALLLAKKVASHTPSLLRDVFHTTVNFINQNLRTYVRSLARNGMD
# UniProt O75934: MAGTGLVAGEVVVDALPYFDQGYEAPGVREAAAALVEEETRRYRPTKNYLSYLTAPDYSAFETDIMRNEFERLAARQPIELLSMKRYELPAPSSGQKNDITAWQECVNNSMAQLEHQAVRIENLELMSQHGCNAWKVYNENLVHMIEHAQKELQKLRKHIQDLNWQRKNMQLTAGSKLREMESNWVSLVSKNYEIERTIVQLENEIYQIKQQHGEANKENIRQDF
# UniProt O15382: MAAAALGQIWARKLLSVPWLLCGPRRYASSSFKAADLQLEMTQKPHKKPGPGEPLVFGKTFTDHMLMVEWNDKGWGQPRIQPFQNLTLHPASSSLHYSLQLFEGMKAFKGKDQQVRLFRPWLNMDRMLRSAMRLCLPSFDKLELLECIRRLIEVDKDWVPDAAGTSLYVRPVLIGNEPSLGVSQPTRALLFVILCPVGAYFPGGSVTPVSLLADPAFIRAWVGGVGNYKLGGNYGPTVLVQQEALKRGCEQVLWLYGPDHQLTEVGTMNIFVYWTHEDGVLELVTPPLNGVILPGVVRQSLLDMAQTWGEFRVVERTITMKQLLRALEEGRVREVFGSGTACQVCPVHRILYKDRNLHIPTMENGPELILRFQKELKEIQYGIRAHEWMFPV
# UniProt Q6QNY0: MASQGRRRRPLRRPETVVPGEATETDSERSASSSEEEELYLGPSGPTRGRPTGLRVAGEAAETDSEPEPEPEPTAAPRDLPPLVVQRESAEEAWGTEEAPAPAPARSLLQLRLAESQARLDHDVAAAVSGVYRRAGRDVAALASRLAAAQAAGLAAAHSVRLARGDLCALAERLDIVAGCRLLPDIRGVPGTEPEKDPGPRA
# UniProt P46736, whole entry, looked up: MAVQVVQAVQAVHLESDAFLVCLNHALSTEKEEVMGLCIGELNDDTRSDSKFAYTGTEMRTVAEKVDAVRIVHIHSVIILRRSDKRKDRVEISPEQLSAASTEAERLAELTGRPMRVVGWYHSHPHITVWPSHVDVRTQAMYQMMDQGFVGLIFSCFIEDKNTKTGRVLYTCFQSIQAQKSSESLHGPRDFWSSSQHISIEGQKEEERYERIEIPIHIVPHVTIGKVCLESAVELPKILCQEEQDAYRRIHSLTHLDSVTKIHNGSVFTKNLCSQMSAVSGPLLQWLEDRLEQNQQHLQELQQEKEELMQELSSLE
# UniProt Q86WA6: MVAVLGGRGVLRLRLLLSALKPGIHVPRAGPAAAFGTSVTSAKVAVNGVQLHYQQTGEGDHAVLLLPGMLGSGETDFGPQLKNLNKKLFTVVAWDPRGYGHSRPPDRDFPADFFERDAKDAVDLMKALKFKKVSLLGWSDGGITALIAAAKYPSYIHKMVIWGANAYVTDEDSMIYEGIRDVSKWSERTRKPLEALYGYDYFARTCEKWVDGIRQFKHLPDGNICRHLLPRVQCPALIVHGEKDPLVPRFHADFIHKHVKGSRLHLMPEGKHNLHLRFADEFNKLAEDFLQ
# UniProt P46379: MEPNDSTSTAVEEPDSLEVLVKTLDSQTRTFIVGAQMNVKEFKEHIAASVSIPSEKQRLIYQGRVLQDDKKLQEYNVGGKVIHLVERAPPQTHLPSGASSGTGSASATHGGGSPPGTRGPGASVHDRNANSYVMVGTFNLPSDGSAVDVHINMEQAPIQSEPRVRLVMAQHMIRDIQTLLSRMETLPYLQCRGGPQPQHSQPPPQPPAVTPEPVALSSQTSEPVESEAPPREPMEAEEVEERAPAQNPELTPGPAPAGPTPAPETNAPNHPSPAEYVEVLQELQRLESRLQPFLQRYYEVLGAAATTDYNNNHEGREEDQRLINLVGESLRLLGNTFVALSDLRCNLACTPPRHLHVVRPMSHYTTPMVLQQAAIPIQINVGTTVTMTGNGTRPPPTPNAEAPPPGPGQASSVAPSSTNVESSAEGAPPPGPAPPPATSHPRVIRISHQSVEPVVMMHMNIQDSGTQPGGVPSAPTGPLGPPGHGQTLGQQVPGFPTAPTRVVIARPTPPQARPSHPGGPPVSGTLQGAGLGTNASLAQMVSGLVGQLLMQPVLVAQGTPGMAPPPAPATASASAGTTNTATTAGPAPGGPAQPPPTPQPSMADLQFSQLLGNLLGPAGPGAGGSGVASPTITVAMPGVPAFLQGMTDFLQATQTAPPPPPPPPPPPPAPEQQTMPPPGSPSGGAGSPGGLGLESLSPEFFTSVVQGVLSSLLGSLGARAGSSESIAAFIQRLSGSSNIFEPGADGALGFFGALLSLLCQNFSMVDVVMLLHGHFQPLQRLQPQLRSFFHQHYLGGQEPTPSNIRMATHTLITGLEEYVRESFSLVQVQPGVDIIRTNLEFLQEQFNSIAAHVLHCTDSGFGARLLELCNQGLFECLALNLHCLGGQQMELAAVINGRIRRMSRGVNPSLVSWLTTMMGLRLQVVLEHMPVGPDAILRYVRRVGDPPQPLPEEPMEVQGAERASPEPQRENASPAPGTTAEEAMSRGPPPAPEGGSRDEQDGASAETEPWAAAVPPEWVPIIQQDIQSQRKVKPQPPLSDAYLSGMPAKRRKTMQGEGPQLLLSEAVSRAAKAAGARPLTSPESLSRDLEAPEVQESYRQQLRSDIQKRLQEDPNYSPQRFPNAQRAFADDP
# The other results are listed elsewhere or left out.
# What was measured:
# Test in all cases: log2 fold change, soluble protein after heating vs DMSO (PISA); higher = thermal stabilisation; K562 lysate, 10 uM; active = over 0.2 and 3.5 SD of the protein, either way, in both replicates (recomputed)
# vemurafenib = compound: CCCS(=O)(=O)Nc1ccc(F)c(C(=O)c2c[nH]c3ncc(-c4ccc(Cl)cc4)cc23)c1F [vemurafenib]
# Outline: (§1)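 Thermal stability, expressed as log-two fold change relative to solvent controls, is given from duplicates. Crude K562 extract in PBS pH 7.4 with 1 mM MgCl2, at 1 mg/mL protein, was treated with 10 μM compound for 30 min and heated in aliquots for 3 min across 48°C-58°C. After pooling, adjustment to 0.5% NP-40 at 4°C and centrifugation at 21,000xg for 90 min, supernatant protein was measured by TMTpro 16plex LC-MS/MS with channel sums equalised.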
# [1] = compound: CCCS(=O)(=O)Nc1ccc(F)c(C(=O)c2c[nH]c3ncc(Cl)cc23)c1F
# Outline: as §1
# barasertib = compound: CCN(CCCOc1ccc2c(Nc3cc(CC(=O)Nc4cccc(F)c4)[nH]n3)ncnc2c1)CCOP(=O)(O)O [barasertib]
# Outline: as §1
# [2] = compound: CC[C@@H]1C(=O)N(C)c2cnc(Nc3ccc(C(=O)NC4CCN(C)CC4)cc3OC)nc2N1C1CCCC1
# Outline: as §1
# volasertib = compound: CC[C@@H]1C(=O)N(C)c2cnc(Nc3ccc(C(=O)N[C@H]4CC[C@H](N5CCN(CC6CC6)CC5)CC4)cc3OC)nc2N1C(C)C [volasertib]
# Outline: as §1
# [3] = compound: CCn1c(C(=O)N(C2CC2)C2CC2)cc2c3c(ncn3C)c(Nc3cc(C)n(C)n3)nc21
# Outline: as §1
# [4] = compound: CCn1cc(-c2ccnc3[nH]c(-c4cccc(CN(C)C)c4)cc23)c(-c2ccc(NC(=O)N(C)C)cc2)n1
# Outline: as §1
# [5] = compound: CN1CCC(CNc2ccc3ncc(-c4cccc(OC(F)(F)F)c4)n3n2)CC1
# Outline: as §1
# saracatinib = compound: CN1CCN(CCOc2cc(OC3CCOCC3)c3c(Nc4c(Cl)ccc5c4OCO5)ncnc3c2)CC1 [saracatinib]
# Outline: as §1
# sotrastaurin = compound: CN1CCN(c2nc(C3=C(c4c[nH]c5ccccc45)C(=O)NC3=O)c3ccccc3n2)CC1 [sotrastaurin]
# Outline: as §1
# alvocidib = compound: CN1CC[C@H](c2c(O)cc(O)c3c(=O)cc(-c4ccccc4Cl)oc23)[C@H](O)C1 [alvocidib]
# Outline: as §1
# Tubastatin A = compound: CN1CCc2c(c3ccccc3n2Cc2ccc(C(=O)NO)cc2)C1 [Tubastatin A]
# Outline: as §1
# [6] = compound: CNC(=O)C1=CC=CC=C1NC2=NC(=NC=C2Cl)NC3=C(C=C(C=C3)N4CCOCC4)OC
# Outline: as §1
# defactinib = compound: CNC(=O)c1ccc(Nc2ncc(C(F)(F)F)c(NCc3nccnc3N(C)S(C)(=O)=O)n2)cc1 [defactinib]
# Outline: as §1
# [7] = compound: CNc1nc(-c2ccc3c(N)n[nH]c3c2)cc(N2C[C@@H](C(=O)NC3CCCCC3)CC[C@H]2C)n1
# Outline: as §1
# encorafenib = compound: COC(=O)N[C@@H](C)CNc1nccc(-c2cn(C(C)C)nc2-c2cc(Cl)cc(NS(C)(=O)=O)c2F)n1 [encorafenib]
# Outline: as §1
# [8] = compound: COC(=O)[C@H](CCSC)NC(=O)C1=C(C=C(C=C1)NC[C@H](CS)N)C2=CC=CC=C2
# Outline: as §1
# alisertib = compound: COc1cc(Nc2ncc3c(n2)-c2ccc(Cl)cc2C(c2c(F)cccc2OC)=NC3)ccc1C(=O)O [alisertib]
# Outline: as §1
# [9] = compound: COc1cc2nc(-c3cc(F)ccc3O)nc(N[C@@H]3CNC[C@H]3C(C)(C)O)c2cc1OC
# Outline: as §1
# gefitinib = compound: COc1cc2ncnc(Nc3ccc(F)c(Cl)c3)c2cc1OCCCN1CCOCC1 [gefitinib]
# Outline: as §1
Target,log2 fold change (vemurafenib),log2 fold change [1],log2 fold change (barasertib),log2 fold change [2],log2 fold change (volasertib),log2 fold change [3],log2 fold change [4],log2 fold change [5],log2 fold change (saracatinib),log2 fold change (sotrastaurin),log2 fold change (alvocidib),log2 fold change (Tubastatin A),log2 fold change [6],log2 fold change (defactinib),log2 fold change [7],log2 fold change (encorafenib),log2 fold change [8],log2 fold change (alisertib),log2 fold change [9],log2 fold change (gefitinib)
BAG2 (UniProt O95816),inactive: -0.012,inactive: -0.032,inactive: 0.026,inactive: 0.019,inactive: 0.029,inactive: 0.009,inactive: 0.072,inactive: -0.021,inactive: -0.016,inactive: 0.006,inactive: 0.017,inactive: -0.002,inactive: -0.014,inactive: -0.023,inactive: -0.13,inactive: -0.005,inactive: -0.101,inactive: -0.006,inactive: -0.03,inactive: -0.004
BTN2A1 (UniProt Q7KYR7),inactive: 0.055,inactive: -0.063,inactive: 0.004,inactive: 0.224,inactive: 0.004,inactive: 0.043,inactive: -0.009,inactive: -0.036,inactive: -0.08,inactive: -0.084,inactive: -0.016,inactive: 0.072,inactive: -0.003,inactive: 0.052,inactive: 0.067,inactive: 0.039,inactive: -0.004,inactive: 0.018,inactive: 0.067,inactive: 0.036
BCAP29 isoform 2 (UniProt Q9UHQ4),inactive: -0.011,inactive: -0.008,inactive: 0.068,inactive: 0.021,inactive: 0.024,inactive: 0.019,inactive: -0.005,inactive: 0.035,inactive: -0.019,inactive: -0.019,inactive: 0.01,inactive: 0.048,inactive: 0.04,inactive: -0.05,inactive: 0.053,inactive: 0.018,inactive: -0.002,inactive: 0.021,inactive: -0.115,inactive: 0.006
B4GALT3 (UniProt O60512),inactive: 0,inactive: -0.151,inactive: -0.058,inactive: 0.218,inactive: -0.023,inactive: 0.252,inactive: 0.109,inactive: -0.079,inactive: 0.01,inactive: 0.03,inactive: 0.038,inactive: 0.015,inactive: 0.02,inactive: -0.045,inactive: -0.114,inactive: 0.128,inactive: 0.17,inactive: 0.09,inactive: -0.031,inactive: 0.01
BABAM2 (UniProt Q9NXR7),inactive: 0.018,inactive: 0.005,inactive: 0.024,inactive: 0.059,inactive: 0,inactive: -0.005,inactive: -0.1,inactive: 0.065,inactive: 0.017,inactive: -0.01,inactive: -0.057,inactive: 0.001,inactive: -0.006,inactive: -0.008,inactive: -0.029,inactive: 0.011,inactive: 0.03,inactive: 0.009,inactive: 0.014,inactive: -0.006
BCL7A isoform 2 (UniProt Q4VC05),inactive: -0.054,inactive: -0.047,inactive: 0.067,inactive: 0.046,inactive: 0.032,inactive: 0.101,inactive: 0.032,inactive: -0.065,inactive: -0.008,inactive: -0.023,inactive: 0.042,inactive: -0.022,inactive: -0.035,inactive: -0.06,inactive: -0.006,inactive: 0.071,inactive: 0.014,inactive: -0.033,inactive: 0.014,inactive: 0.023
BIRC2 (UniProt Q13490),inactive: 0.013,inactive: 0.06,inactive: -0.003,inactive: 0.032,inactive: 0.038,inactive: -0.006,inactive: 0.012,inactive: 0.031,inactive: -0.013,inactive: 0.027,inactive: -0.054,inactive: 0.001,inactive: 0.01,inactive: -0.024,inactive: -0.014,inactive: -0.021,inactive: -0.097,inactive: 0.017,inactive: -0.007,inactive: 0.034
BID isoform 2 (UniProt P55957),inactive: 0.046,inactive: 0.014,inactive: 0.131,inactive: 0.039,inactive: 0.019,inactive: -0.033,inactive: 0.053,inactive: 0.018,inactive: 0.009,inactive: 0.032,inactive: -0.012,inactive: 0.026,inactive: 0.063,inactive: 0.004,inactive: 0.089,inactive: -0.003,inactive: -0.043,inactive: -0.009,inactive: -0.002,inactive: -0.041
BTF3L4 (UniProt Q96K17),inactive: -0.09,inactive: -0.009,inactive: 0.009,inactive: 0.054,inactive: 0.047,inactive: -0.037,inactive: -0.128,inactive: 0.091,inactive: -0.004,inactive: 0.002,inactive: -0.044,inactive: 0.033,inactive: 0.003,inactive: 0.028,inactive: 0.038,inactive: -0.016,inactive: -0.032,inactive: 0.021,inactive: -0.01,inactive: -0.005
BCAS2 (UniProt O75934),inactive: 0.053,inactive: 0.019,inactive: 0.11,inactive: 0.03,inactive: -0.023,inactive: -0.006,inactive: -0.066,inactive: -0.037,inactive: -0.024,inactive: -0.013,inactive: -0.001,inactive: -0.013,inactive: -0.028,inactive: 0.024,inactive: 0.039,inactive: 0.032,inactive: -0.061,inactive: -0.011,inactive: -0.018,inactive: -0.04
BCAT2 (UniProt O15382),inactive: -0.002,inactive: 0.003,inactive: -0.019,inactive: 0.017,inactive: 0.017,inactive: 0.016,inactive: 0.066,inactive: 0.039,inactive: -0.005,inactive: -0.024,inactive: -0.016,inactive: 0.031,inactive: 0.012,inactive: -0.004,inactive: 0.018,inactive: -0.032,inactive: -0.053,inactive: 0.005,inactive: 0.004,inactive: 0.001
BLOC1S3 (UniProt Q6QNY0),inactive: -0.006,inactive: 0.038,inactive: 0.014,inactive: 0.014,inactive: 0.053,inactive: 0.014,inactive: -0.052,inactive: 0.039,inactive: -0.085,inactive: -0.003,inactive: -0.013,inactive: -0.002,inactive: -0.008,inactive: -0.019,inactive: 0.028,inactive: -0.011,inactive: 0.038,inactive: -0.018,inactive: 0.039,inactive: -0.035
BRD4 (UniProt O60885),inactive: 0.049,inactive: 0.016,inactive: -0.007,active: 0.538,active: 0.217,inactive: -0.008,inactive: -0.007,inactive: 0.037,inactive: -0.025,inactive: -0.012,inactive: -0.003,inactive: -0.001,inactive: 0.02,inactive: -0.05,inactive: 0.036,inactive: 0,inactive: 0.03,inactive: 0.038,inactive: -0.03,inactive: 0.034
BRCC3 (UniProt P46736),inactive: -0.015,inactive: -0.012,inactive: -0.032,inactive: -0.062,inactive: 0.009,inactive: -0.072,inactive: -0.072,inactive: 0.086,inactive: 0.004,inactive: -0.031,inactive: 0.031,inactive: -0.005,inactive: 0.02,inactive: -0.023,inactive: -0.027,inactive: 0.029,inactive: 0.005,inactive: 0.003,inactive: -0.027,inactive: -0.047
BPHL (UniProt Q86WA6),inactive: -0.13,inactive: 0.013,inactive: 0.058,inactive: 0.015,inactive: 0,inactive: 0.069,inactive: 0.063,inactive: 0,inactive: -0.058,inactive: 0.084,inactive: 0.004,inactive: -0.006,inactive: -0.048,inactive: 0.036,inactive: -0.137,inactive: -0.002,inactive: 0.004,inactive: 0.085,inactive: -0.028,inactive: 0.009
BAG6 isoform 3 (UniProt P46379),inactive: -0.044,inactive: 0.006,inactive: -0.009,inactive: -0.004,inactive: 0.001,inactive: -0.002,inactive: 0.016,inactive: -0.056,inactive: 0.018,inactive: -0.006,inactive: 0.025,inactive: -0.03,inactive: 0.02,inactive: 0.022,inactive: -0.015,inactive: 0.051,inactive: -0.031,inactive: -0.005,inactive: -0.028,inactive: -0.027

# Only log2 fold change [5] and log2 fold change [2], for some of the entries so far:
Target | log2 fold change [5] | log2 fold change [2]
BCAS2 (UniProt O75934) | inactive: -0.037 | inactive: 0.03
BCAT2 (UniProt O15382) | inactive: 0.039 | inactive: 0.017
